Data source: PubChem BioAssay AID1259425 (University of Nebraska Medical Center, 2018)
This is one part, drawn at random, of about 14,000 deposited reagents. Further read-outs or replicates are left out here. Not given: the time to read-out.

- Test: 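Seek colon cancer weak points whose silencing resembles KSR1 loss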 (primary screen)
- Cells: HCT116 human colon cancer cells
- Knock-down reagent: siRNA pool against human genes, 50 nM siRNA
- Detection: 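After 50 nM siRNA pool, branched-DNA assay measures six marker transcripts per well, minus blank, normalised to the geometric mean of two housekeeping transcripts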
- Scale: BNIP3L mRNA: higher = more BNIP3L transcript after knockdown

PRSS3 (serine protease 3)
- BNIP3L mRNA, set 1: 0.111

LEPROTL1 (leptin receptor overlapping transcript like 1)
- BNIP3L mRNA, set 1: 0.0902

UGT2B28 (UDP glucuronosyltransferase family 2 member B28)
- BNIP3L mRNA, set 1: 0.0611

DDX11 (DEAD/H-box helicase 11)
- BNIP3L mRNA, set 1: 0.0761

E2F5 (E2F transcription factor 5)
- BNIP3L mRNA, set 1: 0.0705

KLRC1 (killer cell lectin like receptor C1)
- BNIP3L mRNA, set 1: 0.0877

ZNF2 (zinc finger protein 2)
- BNIP3L mRNA, set 1: 0.151

ANKRD36B (ankyrin repeat domain 36B)
- BNIP3L mRNA, set 1: 0.0522

ATMIN (ATM interactor)
- BNIP3L mRNA, set 1: 0.158

CDC14B (cell division cycle 14B)
- BNIP3L mRNA, set 1: 0.11

TP53INP2 (tumor protein p53 inducible nuclear protein 2)
- BNIP3L mRNA, set 1: 0.203

PM20D2 (peptidase M20 domain containing 2)
- BNIP3L mRNA, set 1: 0.134

DPYSL3 (dihydropyrimidinase like 3)
- BNIP3L mRNA, set 1: 0.0771

MRI1 (methylthioribose-1-phosphate isomerase 1)
- BNIP3L mRNA, set 1: 0.347

SYNE3 (spectrin repeat containing nuclear envelope family member 3)
- BNIP3L mRNA, set 1: 0.187

CPT2 (carnitine palmitoyltransferase 2)
- BNIP3L mRNA, set 1: 0.183

CHMP1B (charged multivesicular body protein 1B)
- BNIP3L mRNA, set 1: 0.0997

ASL (argininosuccinate lyase)
- BNIP3L mRNA, set 1: 0.108

MYO9B (myosin IXB)
- BNIP3L mRNA, set 1: 0.0739

RPL23 (ribosomal protein L23)
- BNIP3L mRNA, set 1: 0.451

IL5RA (interleukin 5 receptor subunit alpha)
- BNIP3L mRNA, set 1: 0.0616

KHDC1 (KH domain containing 1)
- BNIP3L mRNA, set 1: 0.139

ARNT2 (aryl hydrocarbon receptor nuclear translocator 2)
- BNIP3L mRNA, set 1: 0.11

GOLGA2P10 (GOLGA2 pseudogene 10)
- BNIP3L mRNA, set 1: 0.233

INTS1 (integrator complex subunit 1)
- BNIP3L mRNA, set 1: 0.0689

MSRA (methionine sulfoxide reductase A)
- BNIP3L mRNA, set 1: 0.0757

H3-3A (H3.3 histone A)
- BNIP3L mRNA, set 1: 0.193

PLEKHA4 (pleckstrin homology domain containing A4)
- BNIP3L mRNA, set 1: 0.312
